Data as given in PubChem BioAssay AID1671190 (National Center for Advancing Translational Sciences (NCATS), 2021).
Values joined by “and” are separate entries in the source; they are usually repeats but may differ in a detail not shown here. Identical values can stand only once. Among all 580,000 compounds or so, about 6,100 (1.1%) were called active. The inconclusive results got no clear call from the source; some entries with a clear call stand among them for comparison. Calls come from the whole dose curve; as a rule, active = well fitted inhibition curve with a large enough effect; inconclusive = small, poorly fitted or top-dose-only effect, or another doubt; inactive = no such curve, though single readings can be large or run the other way. Potencies of inconclusive entries are doubtful fits and often do not repeat.

Chains of the proteins cited; added tags and fusions are not shown.
UniProt P18054, whole entry, looked up: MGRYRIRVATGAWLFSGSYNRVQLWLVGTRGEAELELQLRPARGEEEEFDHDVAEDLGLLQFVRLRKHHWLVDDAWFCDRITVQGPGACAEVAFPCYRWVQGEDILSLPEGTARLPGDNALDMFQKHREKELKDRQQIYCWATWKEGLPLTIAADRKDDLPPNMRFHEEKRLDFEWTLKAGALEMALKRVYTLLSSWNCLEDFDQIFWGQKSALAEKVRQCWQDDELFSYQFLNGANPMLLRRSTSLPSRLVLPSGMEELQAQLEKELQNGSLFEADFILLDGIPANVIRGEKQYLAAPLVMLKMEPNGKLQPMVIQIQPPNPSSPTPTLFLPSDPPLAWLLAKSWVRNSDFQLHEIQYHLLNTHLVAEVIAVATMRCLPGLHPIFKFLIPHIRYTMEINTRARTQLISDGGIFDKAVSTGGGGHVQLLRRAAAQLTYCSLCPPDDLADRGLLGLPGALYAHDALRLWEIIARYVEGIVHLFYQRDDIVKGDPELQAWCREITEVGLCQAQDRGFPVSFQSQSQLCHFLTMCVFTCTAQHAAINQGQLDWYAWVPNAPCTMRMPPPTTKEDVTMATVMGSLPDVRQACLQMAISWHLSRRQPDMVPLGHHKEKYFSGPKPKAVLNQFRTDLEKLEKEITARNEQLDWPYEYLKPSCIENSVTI

Target: Polyunsaturated fatty acid lipoxygenase ALOX12 (Homo sapiens) (UniProt P18054)
Assay: Primary qHTS assay for inhibitors of human arachidonate 12S-lipoxygenase (ALOX12): Round 2
Conditions: purified 12hLO, xylenol orange hydroperoxide absorbance; activity change, negative = inhibition: at 108 µM (top of the series) unless noted
Procedure, shortened: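 Purified human 12hLO at 150 nM in 25 mM Hepes, 0.01% Triton X-100, pH 7.0, preincubated 15 min at room temperature with compound. Reaction started with 40 uM arachidonic acid, 30 min at room temperature. Hydroperoxide measured by Fe-xylenol orange, 573/405 nm absorbance ratio.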
% is set by controls: 0 for no effect and ±100 for the full control effect; potency is the fitted concentration of half-maximal effect.

**Q.** COc1ccc(S(=O)(=O)N2CCN(C3CCCC(C)C3)CC2)cc1 (stereo not given) was tested. Which Potency did it give?
**A.** inconclusive: 0.447 µM [inhibitor, full curve]

**Q.** For Cc1ccc(S(=O)(=O)N(C)C)cc1C(=O)NCc1coc(-c2cccs2)n1, which “activity change, negative = inhibition” value is on record?
**A.** inactive: -10.8%

**Q.** CCC(=O)Nc1cc(C)c(O)c(-c2nc3cc(CC)ccc3o2)c1 was tested. Which “activity change, negative = inhibition” value did it give?
**A.** inactive: 0.15%

**Q.** COc1ccc(/C=N/N2CCOCC2)cc1O was tested. Which “activity change, negative = inhibition” value did it give?
**A.** inactive: 7.12%

**Q.** How did the Potency turn out when CCn1c(-c2cc(C3CC3)nc3ccccc23)n[nH]c1=S was run?
**A.** inconclusive: 50.1 µM [inhibitor, partial curve, poor fit]

**Q.** COc1cc2c(cc1OC)CN(C(=O)/C=C/c1cc(OC)c(OC)c(OC)c1)CC2 was tested. Which Potency did it give?
**A.** inconclusive: 112 µM [inhibitor, single point]

**Q.** CN(C)S(=O)(=O)c1cccc(C(=O)NCC2CCCO2)c1 (stereo not given) was tested. Which Potency did it give?
**A.** inconclusive: 0.0891 µM [inhibitor, full curve, poor fit]

**Q.** How did the Potency turn out when O=C(O)c1ccccc1SSc1ccccc1C(=O)O was run?
**A.** inconclusive: 6.31 µM [inhibitor, full curve]

**Q.** How did the Potency turn out when O=C(CSc1cnc2ccccc2n1)c1ccc(F)cc1 was run?
**A.** inconclusive: 44.7 µM [inhibitor, partial curve, poor fit]

**Q.** With O=C(O)COc1ccc(-c2nccc3c2C(=O)N(Cc2cccc(C(F)(F)F)c2)CC(CNC(=O)C2CCOCC2)O3)cc1 (stereo not given) as the molecule, how does the “activity change, negative = inhibition” value read?
**A.** inactive: -18.4%

**Q.** Which Potency does the source give for Cc1ccc(CCNC(=O)CCCn2c(=O)c3ccccc3n(Cc3ccccc3C)c2=O)cc1 here?
**A.** inconclusive: 141 µM [inhibitor, partial curve, poor fit]

**Q.** CC1=C(O)C(=O)C(c2c(C)cc(C)c(Br)c2C)=C(O)C1=O was tested. Which Potency did it give?
**A.** inconclusive: 3.55 µM [inhibitor, full curve, poor fit]

**Q.** COc1ccc2[nH]c3c(c2c1)CCNC31CCN(C(=O)c2cnn(C)c2)CC1 was tested. Which “activity change, negative = inhibition” value did it give?
**A.** inactive: 4.11%

**Q.** For O=c1[nH]cc([N+](=O)[O-])cc1Br, which Potency is on record?
**A.** inconclusive: 0.282 µM [inhibitor, full curve, poor fit]

**Q.** Which Potency does the source give for Cc1cc(C)nc(N/N=C/c2ccc(Cl)cc2)n1 here?
**A.** inconclusive: 39.8 µM [inhibitor, partial curve, poor fit]

**Q.** How did the Potency turn out when COc1ccc(C)cc1Nc1n[n+](-c2ccccc2)c(-c2ccc(N(C)C)cc2)s1 was run?
**A.** inconclusive: 44.7 µM [inhibitor, partial curve, poor fit]

**Q.** How did the “activity change, negative = inhibition” value turn out when C=CCNC(=O)c1cc(-c2ccccc2Cl)nc2ccccc12 was run?
**A.** inactive: 0.0082%

**Q.** For O=C(O)CC/C(=C/c1ccc2ccccc2c1)c1nc2ccccc2s1, which Potency is on record?
**A.** inconclusive: 50.1 µM [inhibitor, partial curve, poor fit]

**Q.** For COCc1[nH]nc2c1C(c1ccc(Br)cc1)N(c1ccc(OC)cc1)C2=O (stereo not given), which Potency is on record?
**A.** inconclusive: 50.1 µM [inhibitor, partial curve, poor fit]

**Q.** For Cc1cccc2c(-c3ccccc3)cc(=O)[nH]c12, which “activity change, negative = inhibition” value is on record?
**A.** inactive: 0%

**Q.** With O=C(c1cc2cc([N+](=O)[O-])ccc2oc1=O)N1CCCCC1 as the molecule, how does the “activity change, negative = inhibition” value read?
**A.** inactive: -8.22%

**Q.** COc1ccccc1NC(=O)COC(=O)C1CC2CCCC(C1)C2=O (stereo not given) was tested. Which Potency did it give?
**A.** inconclusive: 158 µM [inhibitor, partial curve, poor fit]

**Q.** Which “activity change, negative = inhibition” value does the source give for CCCn1c2c(c(O)c(C(=O)Nc3nccs3)c1=O)CCCC2 here?
**A.** inactive: 16.6%

**Q.** For S=C(NCc1cccs1)Nc1ccc(Br)cc1, which Potency is on record?
**A.** inconclusive: 44.7 µM [inhibitor, partial curve, poor fit]

**Q.** CC1(C)Cc2c(C#N)c(SCCOc3ccccc3)nc(N3CCOCC3)c2CO1 was tested. Which “activity change, negative = inhibition” value did it give?
**A.** inactive: 0%

**Q.** CCc1ccc2[nH]c(=O)c(C(c3nnnn3CCOC)N3CCN(c4ccccc4F)CC3)cc2c1 (stereo not given) was tested. Which Potency did it give?
**A.** inconclusive: 3.55 µM [inhibitor, full curve, poor fit]

**Q.** How did the Potency turn out when CC1CCCC(NC(=O)CCNS(=O)(=O)c2ccc(Br)cc2)C1C (stereo not given) was run?
**A.** inconclusive: 79.4 µM [inhibitor, partial curve, poor fit]

**Q.** With Cc1ccc(S(=O)(=O)Nc2cc(C(C)C)c(O)cc2C)cc1 as the molecule, how does the Potency read?
**A.** inconclusive: 50.1 µM [inhibitor, partial curve, poor fit]

**Q.** For Cc1cc(/C=N/NC(N)=O)c(C)n1C1CCCCC1, which “activity change, negative = inhibition” value is on record?
**A.** inactive: 6.3%

**Q.** How did the Potency turn out when O=C1NC[C@@H](CCCCN2C[C@H](Cc3ccccc3)N(CCC3CCCCC3)C(=O)C2=O)N(CCc2ccc(O)cc2)C1=O was run?
**A.** inconclusive: 112 µM [inhibitor, single point]

**Q.** Which activity change, negative = inhibition does the source give for CCOc1cc(Br)cc(C2NC(=O)c3c(sc4c3CCN(C)C4)N2)c1O (stereo not given) here?
**A.** inconclusive: -38.9% [inhibitor]

**Q.** With Cc1cccc2ncc(C(=O)N3CC[C@H](CO)[C@@H](O)C3)c(=O)n12 as the molecule, how does the “activity change, negative = inhibition” value read?
**A.** inactive: 23.9%

**Q.** How did the “activity change, negative = inhibition” value turn out when CCCC(c1nnnn1CCOC)N1CCN(c2cccc(OC)c2)CC1 (stereo not given) was run?
**A.** inactive: 130%

**Q.** With O=C(CN1C(=O)c2ccccc2S1(=O)=O)Nc1cccc(S(=O)(=O)N2CCCCC2)c1 as the molecule, how does the Potency read?
**A.** inconclusive: 89.1 µM [inhibitor, partial curve, poor fit]

**Q.** Which Potency does the source give for CCCCN(CCCC)CCC(O)c1cc2c(Cl)cc(Cl)cc2c2cc(C(F)(F)F)ccc12 (stereo not given) here?
**A.** inconclusive: 9.68 µM [inhibitor, partial curve, poor fit] and inconclusive: 44.7 µM [inhibitor, partial curve, poor fit]

**Q.** For CCC1CN(CC(=O)Nc2ccc(NC(C)=O)cc2)c2ccccc2S1 (stereo not given), which Potency is on record?
**A.** inconclusive: 141 µM [inhibitor, single point]

**Q.** CCOC(=O)/C(=N\Nc1ccc(Cl)cc1)c1csc(Nc2ccccc2)n1 was tested. Which Potency did it give?
**A.** inconclusive: 1.58 µM [inhibitor, full curve, poor fit]

**Q.** O=C1NC[C@H](Cc2ccccc2)N(C[C@H]2CCCN2C[C@H](Cc2ccccc2)N2C[C@H](Cc3ccccc3)N(CC3CCCCCC3)C(=O)C2=O)C1=O was tested. Which Potency did it give?
**A.** inconclusive: 50.1 µM [inhibitor, partial curve, poor fit]

**Q.** With COc1ccc(-c2cn3cccnc3n2)cc1NC(=O)c1ccc(Br)o1 as the molecule, how does the “activity change, negative = inhibition” value read?
**A.** inactive: 1.63%

**Q.** With N#Cc1nc(-c2ccco2)oc1N1CCC(C(=O)NC2CCCCCCC2)CC1 as the molecule, how does the Potency read?
**A.** inconclusive: 56.2 µM [inhibitor, single point]

**Q.** How did the Potency turn out when C=CCN(Cc1ccc(C#N)cc1)S(=O)(=O)c1cccs1 was run?
**A.** inconclusive: 79.4 µM [inhibitor, single point]

**Q.** COc1ccc(C(NC(=O)C2CCN(Cc3ccc(Oc4ccccc4)cc3)CC2)c2ccccc2C)cn1 (stereo not given) was tested. Which Potency did it give?
**A.** inconclusive: 50.1 µM [inhibitor, partial curve, poor fit]

**Q.** How did the Potency turn out when CCCOc1ccc(NC(=O)COc2cccc(C)c2C)c2cccnc12 was run?
**A.** inconclusive: 89.1 µM [inhibitor, single point]

**Q.** With O=C(Nc1ccccc1)N1CCC(N2CCCNC2=O)CC1 as the molecule, how does the Potency read?
**A.** inactive

**Q.** For Cc1ccc(Cl)cc1N1CCN(C(=O)Cc2c(C(=O)O)[nH]c3ccccc23)CC1, which Potency is on record?
**A.** inconclusive: 22.4 µM [inhibitor, partial curve]

**Q.** For CCN(CC)C(=O)CC(c1ccc2c(c1)OCO2)c1c(O)cc(OC)cc1OC (stereo not given), which Potency is on record?
**A.** inconclusive: 44.7 µM [inhibitor, partial curve, poor fit]

**Q.** How did the Potency turn out when CCc1ccc2ncc(C(=O)c3ccc(C)c(C)c3)c(N3CCC(C(N)=O)CC3)c2c1 was run?
**A.** inconclusive: 44.7 µM [inhibitor, partial curve, poor fit]

**Q.** Which “activity change, negative = inhibition” value does the source give for O=C(CCN1CCN(c2ccccc2)CC1)NNC(=O)Cc1ccc(Br)cc1 here?
**A.** inactive: 0.901%

**Q.** With O=C(Nc1cccc(F)c1)N1CCC(Oc2ncccc2C(=O)N2CCOCC2)C1 (stereo not given) as the molecule, how does the “activity change, negative = inhibition” value read?
**A.** inactive: 27%

**Q.** For CCN(CC)C(c1ccc(C)cc1)c1nnnn1C1CCCCC1 (stereo not given), which “activity change, negative = inhibition” value is on record?
**A.** inactive: -38.1%

**Q.** How did the “activity change, negative = inhibition” value turn out when O=C(CNc1cc(S(=O)(=O)N2CCOCC2)ccc1N1CCCC1)Nc1ccc(Cl)cc1 was run?
**A.** inactive: 214%

**Q.** Cc1c(CCO)c(=O)n(-c2ccccc2)n1S(=O)(=O)c1ccc([N+](=O)[O-])cc1 was tested. Which Potency did it give?
**A.** inconclusive: 89.1 µM [inhibitor, single point]

**Q.** CCCOc1ccc(C(=O)N(Cc2ccccc2Cl)C2CCS(=O)(=O)C2)cc1 (stereo not given) was tested. Which “activity change, negative = inhibition” value did it give?
**A.** inactive: -12.8%

**Q.** With O=C(CSc1nc(C(F)(F)F)nc2ccccc12)Nc1ccc(O)cc1 as the molecule, how does the Potency read?
**A.** inconclusive: 44.7 µM [inhibitor, single point]

**Q.** Which Potency does the source give for Cc1cccc(N2CCN(Cc3nnc(-c4ccccc4C)o3)CC2C)c1 (stereo not given) here?
**A.** inconclusive: 44.7 µM [inhibitor, partial curve, poor fit]

**Q.** With Oc1cccc(/C=N/Nc2cccc3cccnc23)c1 as the molecule, how does the Potency read?
**A.** inconclusive: 70.8 µM [inhibitor, partial curve, poor fit]

**Q.** CCC(NS(=O)(=O)c1ccc(C)cc1)C(=O)N1CCN(c2ccccn2)CC1 (stereo not given) was tested. Which “activity change, negative = inhibition” value did it give?
**A.** inactive: 27.3% [at 57.4 µM]

**Q.** CCn1nc(NC(=O)c2ccco2)c2cc3cc(C)ccc3nc21 was tested. Which Potency did it give?
**A.** inconclusive: 100 µM [inhibitor, partial curve, poor fit]

**Q.** For COc1ccc(S(=O)(=O)Nc2cc3c4c(c2)CC(=O)N4CCC3)cc1, which Potency is on record?
**A.** inconclusive: 50.1 µM [inhibitor, partial curve, poor fit]

**Q.** How did the Potency turn out when COC(=O)c1ccccc1NC(=O)c1cnc(Nc2ccc(OC)cc2)c2ccccc12 was run?
**A.** inconclusive: 7.08 µM [inhibitor, full curve]

**Q.** Which Potency does the source give for Cn1c(=O)c2c(nc(Cl)n2CC(=O)N2CCCCC2)n(C)c1=O here?
**A.** inconclusive: 79.4 µM [inhibitor, single point]

**Q.** With Cc1cc2oc(C(=O)NCC(c3cccs3)N3CCCC3)cc(=O)c2cc1Cl (stereo not given) as the molecule, how does the Potency read?
**A.** inconclusive: 50.1 µM [inhibitor, single point]

**Q.** NC(N)=N/N=C/c1ccc(OCc2ccccc2)c(OCc2ccccc2)c1 was tested. Which Potency did it give?
**A.** inconclusive: 126 µM [inhibitor, single point]

**Q.** Which “activity change, negative = inhibition” value does the source give for O=C(Cn1nc(-c2ccccc2)ccc1=O)NCCN1CCN(Cc2ccccc2)CC1 here?
**A.** inactive: 7.91%

**Q.** Cc1nc(-c2ccc(S(=O)(=O)Nc3ccc(C)c(Cl)c3)cc2)co1 was tested. Which Potency did it give?
**A.** inconclusive: 28.2 µM [inhibitor, partial curve, poor fit]
